Reference: publication PMC4633129
Results are given in words; binding and its absence hold for the method and conditions named. Binding seen in cells or lysates may run through a third protein. Some results given as binding are weak or reduced against the parent protein; the word gives no strength. Tags and fused reporters may be left off the sequences shown.

Chains of the proteins cited; added tags and fusions are not shown.
UniProt P52631: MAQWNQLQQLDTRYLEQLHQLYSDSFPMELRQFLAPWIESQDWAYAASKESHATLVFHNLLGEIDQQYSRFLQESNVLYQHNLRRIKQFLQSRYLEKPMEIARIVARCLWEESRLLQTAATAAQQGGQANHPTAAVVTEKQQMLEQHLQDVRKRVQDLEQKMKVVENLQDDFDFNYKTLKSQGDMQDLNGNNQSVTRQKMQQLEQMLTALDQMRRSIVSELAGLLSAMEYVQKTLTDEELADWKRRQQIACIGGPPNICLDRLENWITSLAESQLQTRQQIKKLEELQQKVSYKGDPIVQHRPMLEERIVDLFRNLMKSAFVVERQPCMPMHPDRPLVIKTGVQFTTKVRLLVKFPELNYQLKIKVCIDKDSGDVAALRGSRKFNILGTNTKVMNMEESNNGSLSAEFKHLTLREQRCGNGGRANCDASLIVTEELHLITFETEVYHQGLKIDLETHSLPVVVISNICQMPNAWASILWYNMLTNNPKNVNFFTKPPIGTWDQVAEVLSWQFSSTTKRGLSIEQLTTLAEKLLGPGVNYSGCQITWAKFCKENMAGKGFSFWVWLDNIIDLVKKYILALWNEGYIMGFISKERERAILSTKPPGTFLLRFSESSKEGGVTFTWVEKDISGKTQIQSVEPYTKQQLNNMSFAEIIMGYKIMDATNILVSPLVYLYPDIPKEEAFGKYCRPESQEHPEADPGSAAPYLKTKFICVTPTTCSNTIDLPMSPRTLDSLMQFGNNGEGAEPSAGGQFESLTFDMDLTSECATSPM

Molecular target: T1, FLAG-tagged PHB1 (prohibitin 1) (UniProt P35232)
T1 sequence: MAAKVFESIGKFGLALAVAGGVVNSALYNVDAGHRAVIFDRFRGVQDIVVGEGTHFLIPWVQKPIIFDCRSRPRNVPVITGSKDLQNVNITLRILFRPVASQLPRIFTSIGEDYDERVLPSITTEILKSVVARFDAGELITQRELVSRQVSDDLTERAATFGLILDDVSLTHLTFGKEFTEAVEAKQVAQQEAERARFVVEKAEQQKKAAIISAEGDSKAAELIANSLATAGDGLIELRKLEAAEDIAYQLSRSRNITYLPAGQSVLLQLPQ
Assay: co-IP; anti-FLAG M2 antibody with protein G Plus/A-agarose from lysates of H9c2 cells transfected with FLAG-PHB1 and FLAG-PHB2; cells incubated 0, 15 or 30 min with FL3 (100 nM) before lysis; IP buffer 20 mM Tris-HCl, 5 M NaCl (so in the source), 2 mM EDTA, 1% Triton X-100; western blot with anti-STAT3 or anti-phospho-STAT3

Row | binding | Substance
1 | binds | STAT3 (from UniProt P52631 1-770)
2 | binds | phospho-STAT3 (from UniProt P52631 1-770)
